Some results were stated once for a whole list of compounds, not compound by compound.
Experiments:
Format in all cases: in vivo
Amaranthus retroflexus = experiment: Pre-emergence herbicidal action against harmful plants; conditions: application rate 80 g/ha, visual assessment after 3 weeks vs untreated controls (100%=plants have died, 0%=like control)
Abutilon theophrasti [1] = experiment: as above; conditions: application rate 80 g/ha, visual assessment after 3 weeks vs untreated controls (100%=plants have died, 0%=like control)
Veronica persica [2] = experiment: as above; conditions: application rate 80 g/ha, visual assessment after 3 weeks vs untreated controls (100%=plants have died, 0%=like control)
Echinocloa crus galli = experiment: as above; conditions: application rate 80 g/ha, visual assessment after 3 weeks vs untreated controls (100%=plants have died, 0%=like control)
Matricaria inodora = experiment: as above; conditions: application rate 80 g/ha, visual assessment after 3 weeks vs untreated controls (100%=plants have died, 0%=like control)
Abutilon theophrasti [3] = experiment: Post-emergence herbicidal action against harmful plants; conditions: post-emergence (one-leaf stage), application rate 80 g/ha, visual rating after about 3 weeks vs untreated controls
Veronica persica [4] = experiment: as above; conditions: post-emergence (one-leaf stage), application rate 80 g/ha, visual rating after about 3 weeks vs untreated controls

Structure (SMILES)	herbicidal activity in percent against Veronica persica (Veronica persica [2])	herbicidal activity in percent against Echinocloa crus galli (Echinocloa crus galli)	other results
CCSc1c(C(F)(F)F)ccc(C(=O)Nc2ncnn2C)c1C [Compound 1-149]	at least 80%	at least 80%	herbicidal activity in percent against Amaranthus retroflexus (Amaranthus retroflexus): at least 80%; herbicidal activity in percent against Abutilon theophrasti (Abutilon theophrasti [1]): at least 80%
COCCOc1c(S(C)(=O)=O)ccc(C(=O)Nc2ncnn2C)c1C(F)(F)F [Compound 1-229]	at least 80%	at least 80%	
Cn1ncnc1NC(=O)c1ccc(Cl)c(S(C)(=O)=O)c1Cl [Compound 1-247]	at least 80%	at least 80%	
CCOc1c(S(=O)(=O)CC)ccc(C(=O)Nc2ncnn2C)c1Cl [Compound 1-279]	at least 80%	at least 80%	
CCOCCOc1c(S(C)(=O)=O)ccc(C(=O)Nc2ncnn2C)c1C(F)(F)F [Compound 1-503]	at least 80%	at least 80%	
C=CCOc1c(S(=O)(=O)CC)ccc(C(=O)Nc2ncnn2C)c1Cl [Compound 1-555]	at least 80%		herbicidal activity in percent against Matricaria inodora (Matricaria inodora): at least 80%
C=CCOc1c(S(C)(=O)=O)ccc(C(=O)Nc2ncnn2C)c1Cl [Compound 1-556]	at least 80%	at least 80%	herbicidal activity in percent against Amaranthus retroflexus (Amaranthus retroflexus): at least 80%; herbicidal activity in percent against Abutilon theophrasti (Abutilon theophrasti [1]): at least 80%
CSc1ccc(C(=O)Nc2nnnn2C)c(Cl)c1 [Compound 4-9]	at least 80%	at least 80%	herbicidal activity in percent against Amaranthus retroflexus (Amaranthus retroflexus): at least 80%; herbicidal activity in percent against Abutilon theophrasti (Abutilon theophrasti [1]): at least 80%
Cn1nnnc1NC(=O)c1ccc(C(F)(F)F)cc1S(C)(=O)=O [Compound 4-25]	at least 80%		herbicidal activity in percent against Matricaria inodora (Matricaria inodora): at least 80%
CCS(=O)(=O)c1cc(Cl)ccc1C(=O)Nc1nnnn1C [Compound 4-26]	at least 80%	at least 80%	
CSc1c(Cl)ccc(C(=O)Nc2nnnn2C)c1C [Compound 4-108]	at least 80%		herbicidal activity in percent against Matricaria inodora (Matricaria inodora): at least 80%
Cc1c(C(=O)Nc2nnnn2C)ccc(Br)c1S(C)(=O)=O [Compound 4-124]	at least 80%	at least 80%	
CCSc1c(C(F)(F)F)ccc(C(=O)Nc2nnnn2C)c1C [Compound 4-138]	at least 80%	at least 80%	
CC(C)c1c(C(=O)Nc2nnnn2C)ccc(C(F)(F)F)c1S(C)(=O)=O [Compound 4-198]	at least 80%		herbicidal activity in percent against Matricaria inodora (Matricaria inodora): at least 80%
COCCCOc1c(S(C)(=O)=O)ccc(C(=O)Nc2nnnn2C)c1C(F)(F)F [Compound 4-221]	at least 80%	at least 80%	
COc1c(C(=O)Nc2nnnn2C)ccc(C(F)(F)F)c1S(C)(=O)=O [Compound 4-314]	at least 80%		herbicidal activity in percent against Matricaria inodora (Matricaria inodora): at least 80%
Cc1c(C(=O)Nc2nnnn2C)ccc(Cl)c1OCCN(C)S(C)(=O)=O [Compound 4-410]	at least 80%	at least 80%	
Cc1c(C(=O)Nc2nnnn2C)ccc(S(C)(=O)=O)c1NC(C)C [Compound 4-450]	at least 80%	at least 80%	
Cc1c(C(=O)Nc2nnnn2C)ccc(S(C)(=O)=O)c1NCC1OCCCO1 [Compound 4-467]	at least 80%		herbicidal activity in percent against Matricaria inodora (Matricaria inodora): at least 80%
CCc1c(C(=O)Nc2nnnn2C)ccc(Cl)c1[S+](C)[O-] (centres unmarked) [Compound 4-501]	at least 80%	at least 80%	
COc1nn(Cc2c(Cl)ccc(C(=O)Nc3nnnn3C)c2Cl)c(=O)n1C [Compound 4-652]	at least 80%	at least 80%	
Cn1nnnc1NC(=O)c1ccc(Br)c(OCC2COCCO2)c1Cl (centres unmarked) [Compound 4-686]	at least 80%	at least 80%	
CCSc1c(Cl)ccc(C(=O)Nc2nnnn2CC)c1C [Compound 5-122]		at least 80%	herbicidal activity in percent against Abutilon theophrasti (Abutilon theophrasti [3]): at least 80%; herbicidal activity in percent against Veronica persica (Veronica persica [4]): at least 80%
CCn1nnnc1NC(=O)c1ccc(Cl)c(S(=O)(=O)CC)c1C [Compound 5-124]			herbicidal activity in percent against Matricaria inodora (Matricaria inodora): at least 80%

Structure (SMILES)	herbicidal activity in percent against Veronica persica (Veronica persica [2])	herbicidal activity in percent against Echinocloa crus galli (Echinocloa crus galli)	other results
CCn1nnnc1NC(=O)c1ccc(S(C)(=O)=O)c(C2=NOCC2)c1C [Compound 5-156]	at least 80%	at least 80%	
CCn1nnnc1NC(=O)c1ccc(S(C)(=O)=O)c(-n2cccn2)c1C [Compound 5-164]	at least 80%	at least 80%	
CCn1nnnc1NC(=O)c1ccc(C(F)(F)F)c(S(C)(=O)=O)c1C1CC1 [Compound 5-210]		at least 80%	
CCn1nnnc1NC(=O)c1ccc(S(C)(=O)=O)c(OC)c1Cl [Compound 5-276]		at least 80%	
CCn1nnnc1NC(=O)c1ccc(C#N)c(SC)c1C [Compound 5-392]			herbicidal activity in percent against Matricaria inodora (Matricaria inodora): at least 80%
CCn1nnnc1NC(=O)c1ccc(S(C)(=O)=O)c(N(C)CC2CC2)c1C [Compound 5-432]	at least 80%	at least 80%	
CCCc1c(C(=O)Nc2nnnn2CC)ccc(Cl)c1[S+](C)[O-] (centres unmarked) [Compound 5-510]		at least 80%	
CCn1nnnc1NC(=O)c1ccc(S(C)(=O)=O)c(SC)c1C(F)(F)F [Compound 5-597]		at least 80%	
CCn1nnnc1NC(=O)c1ccc(S(=O)(=O)CC)c(SC)c1C(F)(F)F [Compound 5-598]			herbicidal activity in percent against Matricaria inodora (Matricaria inodora): at least 80%
CCn1nnnc1NC(=O)c1ccc(C)c(SC)c1Cl [Compound 5-614]			herbicidal activity in percent against Matricaria inodora (Matricaria inodora): at least 80%
C#CCOc1c(S(C)(=O)=O)ccc(C(=O)Nc2nnnn2CC)c1Cl [Compound 5-676]		at least 80%	
CCCn1nnnc1NC(=O)c1ccc(C(F)(F)F)cc1S(C)(=O)=O [Compound 7-17]	at least 80%	at least 80%	
CCCn1nnnc1NC(=O)c1ccc(Cl)c(OCCOC)c1C [Compound 7-124]	at least 80%	at least 80%	
CCCn1nnnc1NC(=O)c1ccc(Br)c(S(C)(=O)=O)c1CC [Compound 7-180]	at least 80%	at least 80%	
CCCc1c(C(=O)Nc2nnnn2CCC)ccc(C(F)(F)F)c1[S+](C)[O-] (centres unmarked) [Compound 7-218]	at least 80%	at least 80%	
CCCn1nnnc1NC(=O)c1ccc(S(=O)(=O)CC)c(OC)c1Cl [Compound 7-318]	at least 80%	at least 80%	
CCCn1nnnc1NC(=O)c1ccc(S(=O)(=O)CC)c(C2=NOC(COC)C2)c1Cl (centres unmarked) [Compound 7-412]			herbicidal activity in percent against Abutilon theophrasti (Abutilon theophrasti [3]): at least 80%; herbicidal activity in percent against Veronica persica (Veronica persica [4]): at least 80%
Cn1nnnc1NC(=O)c1ccc(Cl)nc1Cl [Compound 8-2]	at least 80%	at least 80%	
COCCOCc1nc(C(F)(F)F)ccc1C(=O)Nc1ncnn1C [Compound 8-22]			herbicidal activity in percent against Abutilon theophrasti (Abutilon theophrasti [3]): at least 80%; herbicidal activity in percent against Veronica persica (Veronica persica [4]): at least 80%
Cn1nnnc1NC(=O)c1ccc(C(F)(F)F)nc1Br [Compound 8-34]	at least 80%	at least 80%	herbicidal activity in percent against Amaranthus retroflexus (Amaranthus retroflexus): at least 80%; herbicidal activity in percent against Abutilon theophrasti (Abutilon theophrasti [1]): at least 80%
CCOCc1nc(C(F)(F)F)ccc1C(=O)Nc1nnnn1CC [Compound 8-46]			herbicidal activity in percent against Abutilon theophrasti (Abutilon theophrasti [3]): at least 80%; herbicidal activity in percent against Veronica persica (Veronica persica [4]): at least 80%
CCCn1nnnc1NC(=O)c1ccc(C(F)(F)F)nc1C [Compound 8-59]			herbicidal activity in percent against Abutilon theophrasti (Abutilon theophrasti [3]): at least 80%; herbicidal activity in percent against Veronica persica (Veronica persica [4]): at least 80%
CN1CCN(Cc2nc(C(F)(F)F)ccc2C(=O)Nc2nnnn2C)C1=O [Compound 8-69]			herbicidal activity in percent against Abutilon theophrasti (Abutilon theophrasti [3]): at least 80%; herbicidal activity in percent against Veronica persica (Veronica persica [4]): at least 80%
C=CCn1nnnc1NC(=O)c1ccc(C(F)(F)F)nc1COC [Compound 8-77]			herbicidal activity in percent against Amaranthus retroflexus (Amaranthus retroflexus): at least 80%; herbicidal activity in percent against Abutilon theophrasti (Abutilon theophrasti [1]): at least 80%; herbicidal activity in percent against Abutilon theophrasti (Abutilon theophrasti [3]): at least 80%; herbicidal activity in percent against Veronica persica (Veronica persica [4]): at least 80%

From patent US8481749B2, “N-(tetrazol-5-yl)- and N-(triazol-5-yl)arylcarboxamides and their use as herbicides” (Bayer Cropscience AG, priority 2010, dated 2013)
